From article doi:10.1101/569251 come the findings set out here.

Like-named read-outs stand apart in the source and are kept apart here. Results are given in words; binding and its absence hold for the method and conditions named. For part of these data: Binding seen in cells or lysates may run through a third protein. Some results given as binding are weak or reduced against the parent protein; the word gives no strength. Tags and fused reporters may be left off the sequences shown.

The target of one assay is T1, SEPT6 (human) (UniProt Q14141).
T1 sequence: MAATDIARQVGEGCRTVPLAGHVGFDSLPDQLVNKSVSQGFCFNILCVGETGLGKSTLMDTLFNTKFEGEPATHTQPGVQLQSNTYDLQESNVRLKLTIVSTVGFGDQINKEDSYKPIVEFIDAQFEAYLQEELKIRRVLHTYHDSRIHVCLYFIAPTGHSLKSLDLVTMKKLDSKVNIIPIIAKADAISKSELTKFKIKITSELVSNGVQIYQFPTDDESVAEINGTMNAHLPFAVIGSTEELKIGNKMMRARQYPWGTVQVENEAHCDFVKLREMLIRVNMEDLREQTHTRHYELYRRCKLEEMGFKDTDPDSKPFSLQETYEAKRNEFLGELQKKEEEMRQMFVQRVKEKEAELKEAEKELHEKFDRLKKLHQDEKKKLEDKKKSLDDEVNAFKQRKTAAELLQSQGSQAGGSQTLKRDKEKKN

Assay [1] concerns the target T2, SEPT7 (residues 29-437) with N-terminal His-tag (human) (UniProt Q16181).
T2 sequence: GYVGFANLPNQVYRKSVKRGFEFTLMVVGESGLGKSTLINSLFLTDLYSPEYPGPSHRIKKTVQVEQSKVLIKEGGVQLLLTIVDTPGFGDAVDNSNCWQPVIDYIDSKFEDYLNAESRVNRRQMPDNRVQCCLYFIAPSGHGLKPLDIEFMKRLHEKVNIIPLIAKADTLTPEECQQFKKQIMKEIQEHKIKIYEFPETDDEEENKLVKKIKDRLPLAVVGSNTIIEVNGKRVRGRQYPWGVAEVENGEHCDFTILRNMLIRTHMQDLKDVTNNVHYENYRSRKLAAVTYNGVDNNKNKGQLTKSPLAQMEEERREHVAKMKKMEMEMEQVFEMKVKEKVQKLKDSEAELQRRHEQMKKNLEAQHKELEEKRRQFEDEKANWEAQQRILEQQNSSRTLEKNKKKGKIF
The experiment in a line: pull-down + SEC.

For assay [2], the target named is T2, SEPT7 (residues 29-437) with N-terminal His-tag (human). The experiment in a line: pull-down + SEC. This is another data set of the same source.
Assay [3] shares this target.

B1: MBP-SEPT2 (protein, UniProt Q15019-1 1-361)
chain: MSKQQPTQFINPETPGYVGFANLPNQVHRKSVKKGFEFTLMVVGESGLGKSTLINSLFLTDLYPERVIPGAAEKIERTVQIEASTVEIEERGVKLRLTVVDTPGYGDAINCRDCFKTIISYIDEQFERYLHDESGLNRRHIIDNRVHCCFYFISPFGHGLKPLDVAFMKAIHNKVNIVPVIAKADTLTLKERERLKKRILDEIEEHNIKIYHLPDAESDEDEDFKEQTRLLKASIPFSVVGSNQLIEAKGKKVRGRLYPWGVVEVENPEHNDFLKLRTMLITHMQDLQEVTQDLHYENFRSERLKRGGRKVENEDMNKDQILLEKEAELRRMQEMIARMQAQMQMQMQGGDGDGGALGHHV
For the molecule B1, the binding entry (with SEPT6 (human); in assay [1]) was “binds” throughout.

B2: SEPT6 (protein, UniProt Q14141-2 1-427)
chain: MAATDIARQVGEGCRTVPLAGHVGFDSLPDQLVNKSVSQGFCFNILCVGETGLGKSTLMDTLFNTKFEGEPATHTQPGVQLQSNTYDLQESNVRLKLTIVSTVGFGDQINKEDSYKPIVEFIDAQFEAYLQEELKIRRVLHTYHDSRIHVCLYFIAPTGHSLKSLDLVTMKKLDSKVNIIPIIAKADAISKSELTKFKIKITSELVSNGVQIYQFPTDDESVAEINGTMNAHLPFAVIGSTEELKIGNKMMRARQYPWGTVQVENEAHCDFVKLREMLIRVNMEDLREQTHTRHYELYRRCKLEEMGFKDTDPDSKPFSLQETYEAKRNEFLGELQKKEEEMRQMFVQRVKEKEAELKEAEKELHEKFDRLKKLHQDEKKKLEDKKKSLDDEVNAFKQRKTAAELLQSQGSQAGGSQTLKRDKEKKN
Take B2: the binding result in assay [2], in assay [3] and in assay [1] was “binds” in each case.

B3: SEPT5 (without MBP) (protein, UniProt Q99719-1 1-369)
chain: MSTGLRYKSKLATPEDKQDIDKQYVGFATLPNQVHRKSVKKGFDFTLMVAGESGLGKSTLVHSLFLTDLYKDRKLLSAEERISQTVEILKHTVDIEEKGVKLKLTIVDTPGFGDAVNNTECWKPITDYVDQQFEQYFRDESGLNRKNIQDNRVHCCLYFISPFGHGLRPVDVGFMKALHEKVNIVPLIAKADCLVPSEIRKLKERIREEIDKFGIHVYQFPECDSDEDEDFKQQDRELKESAPFAVIGSNTVVEAKGQRVRGRLYPWGIVEVENQAHCDFVKLRNMLIRTHMHDLKDVTCDVHYENYRAHCIQQMTSKLTQDSRMESPIPILPLPTPDAETEKLIRMKDEELRRMQEMLQRMKQQMQDQ
With B3, the binding entry (in assay [2]; in the assay with SEPT6 (human)) was “binds” each time.

B4: MBP-SEPT5 (protein, UniProt Q99719-1 1-369)
chain: MSTGLRYKSKLATPEDKQDIDKQYVGFATLPNQVHRKSVKKGFDFTLMVAGESGLGKSTLVHSLFLTDLYKDRKLLSAEERISQTVEILKHTVDIEEKGVKLKLTIVDTPGFGDAVNNTECWKPITDYVDQQFEQYFRDESGLNRKNIQDNRVHCCLYFISPFGHGLRPVDVGFMKALHEKVNIVPLIAKADCLVPSEIRKLKERIREEIDKFGIHVYQFPECDSDEDEDFKQQDRELKESAPFAVIGSNTVVEAKGQRVRGRLYPWGIVEVENQAHCDFVKLRNMLIRTHMHDLKDVTCDVHYENYRAHCIQQMTSKLTQDSRMESPIPILPLPTPDAETEKLIRMKDEELRRMQEMLQRMKQQMQDQ
On to B4, for which the binding entry (in assay [2]; with SEPT6 (human)) was “binds” in each case.
